Values from PubChem BioAssay AID1224826 (NIAID, 2016)
Purpose: 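Regulators of Tlr4 signalling leading to Tnf-alpha expression in macrophages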 (primary screen). Cell system: RAW264.7 G9 macrophages from mouse bearing reporters for p65 (GFP) and the Tnf promoter (mCherry). Reagent: siRNA pool against mouse genes, 100 nM. Duration: 16 h of LPS stimulation, after 2 days of siRNA transfection. Challenge: bacterial lipopolysaccharide (Salmonella minnesota R595), 10 ng/ml. Measured: 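Nuclear mCherry signal of the Tnf promoter reporter measured by imaging after background removal, scaled to each plate median and turned into robust z-scores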. Scale: Tnf reporter robust z-score: higher = stronger Tnf promoter reporter signal after LPS. Rule for the call: 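Called active when robust z-score is at most -1.3, matching the median of the Tlr4 knock-down control, or over 3; control wells and wells with under 50 cells never active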. Calls: active = Tnf reporter clearly lowered or raised; inactive = no clear change in Tnf reporter.
In all, the deposit lists about 17,000 reagents; below is an unselected part. Over the whole deposit, about 1,110 (6.6%) are marked active. 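Active means lowered or raised reporter signal; replicate intensities are raw and not normalised per plate.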 Not all columns of the deposit are shown. Reagent sequences are not shown.

{"gene symbol": "Ovch2 (ovochymase 2)", "PubChem SID": "SID315479743", "Tnf reporter robust z-score": -0.94, "fewer than 50 cells in well": "enough cells in well", "activity call": "inactive"}
{"gene symbol": "Kcnk10 (potassium channel, subfamily K, member 10)", "PubChem SID": "SID315474502", "Tnf reporter robust z-score": 1.01, "fewer than 50 cells in well": "enough cells in well", "activity call": "inactive"}
{"gene symbol": "Snx19 (sorting nexin 19)", "PubChem SID": "SID315476339", "fewer than 50 cells in well": "fewer than 50 cells per well; well left out of calls", "activity call": "inactive"}
{"gene symbol": "Yaf2 (YY1 associated factor 2)", "PubChem SID": "SID315472807", "Tnf reporter robust z-score": -0.35, "fewer than 50 cells in well": "enough cells in well", "activity call": "inactive"}
{"gene symbol": "Dusp1 (dual specificity phosphatase 1)", "PubChem SID": "SID315468799", "Tnf reporter robust z-score": -1.31, "fewer than 50 cells in well": "enough cells in well", "activity call": "active"}
{"gene symbol": "Gps2 (G protein pathway suppressor 2)", "PubChem SID": "SID315471448", "fewer than 50 cells in well": "fewer than 50 cells per well; well left out of calls", "activity call": "inactive"}
{"gene symbol": "Kiss1 (KiSS-1 metastasis-suppressor)", "PubChem SID": "SID315481017", "Tnf reporter robust z-score": 0.4, "fewer than 50 cells in well": "enough cells in well", "activity call": "inactive"}
{"gene symbol": "Wipi1 (WD repeat domain, phosphoinositide interacting 1)", "PubChem SID": "SID315470993", "Tnf reporter robust z-score": -0.39, "fewer than 50 cells in well": "enough cells in well", "activity call": "inactive"}
{"gene symbol": "Tmem202 (transmembrane protein 202)", "PubChem SID": "SID315474798", "fewer than 50 cells in well": "fewer than 50 cells per well; well left out of calls", "activity call": "inactive"}
{"gene symbol": "Gbp6 (guanylate binding protein 6)", "PubChem SID": "SID315476241", "Tnf reporter robust z-score": 1.06, "fewer than 50 cells in well": "enough cells in well", "activity call": "inactive"}
{"gene symbol": "Jun (Jun proto-oncogene, AP-1 transcription factor subunit)", "PubChem SID": "SID315467553", "Tnf reporter robust z-score": -0.25, "fewer than 50 cells in well": "enough cells in well", "activity call": "inactive"}
{"gene symbol": "Hs3st1 (heparan sulfate (glucosamine) 3-O-sulfotransferase 1)", "PubChem SID": "SID315467303", "Tnf reporter robust z-score": -1.73, "fewer than 50 cells in well": "enough cells in well", "activity call": "active"}

Copied from the list.
Jun (Jun proto-oncogene, AP-1 transcription factor subunit) [SID315467553], Tnf reporter robust z-score = -0.25
Hs3st1 (heparan sulfate (glucosamine) 3-O-sulfotransferase 1) [SID315467303], fewer than 50 cells in well → enough cells in well
